The values that follow come from paper PMC9264838.

Protein sequences, listed by entry. Tags and fused reporters are not part of them. Residues count along the entry.
UniProt P32004, residues 20-1257: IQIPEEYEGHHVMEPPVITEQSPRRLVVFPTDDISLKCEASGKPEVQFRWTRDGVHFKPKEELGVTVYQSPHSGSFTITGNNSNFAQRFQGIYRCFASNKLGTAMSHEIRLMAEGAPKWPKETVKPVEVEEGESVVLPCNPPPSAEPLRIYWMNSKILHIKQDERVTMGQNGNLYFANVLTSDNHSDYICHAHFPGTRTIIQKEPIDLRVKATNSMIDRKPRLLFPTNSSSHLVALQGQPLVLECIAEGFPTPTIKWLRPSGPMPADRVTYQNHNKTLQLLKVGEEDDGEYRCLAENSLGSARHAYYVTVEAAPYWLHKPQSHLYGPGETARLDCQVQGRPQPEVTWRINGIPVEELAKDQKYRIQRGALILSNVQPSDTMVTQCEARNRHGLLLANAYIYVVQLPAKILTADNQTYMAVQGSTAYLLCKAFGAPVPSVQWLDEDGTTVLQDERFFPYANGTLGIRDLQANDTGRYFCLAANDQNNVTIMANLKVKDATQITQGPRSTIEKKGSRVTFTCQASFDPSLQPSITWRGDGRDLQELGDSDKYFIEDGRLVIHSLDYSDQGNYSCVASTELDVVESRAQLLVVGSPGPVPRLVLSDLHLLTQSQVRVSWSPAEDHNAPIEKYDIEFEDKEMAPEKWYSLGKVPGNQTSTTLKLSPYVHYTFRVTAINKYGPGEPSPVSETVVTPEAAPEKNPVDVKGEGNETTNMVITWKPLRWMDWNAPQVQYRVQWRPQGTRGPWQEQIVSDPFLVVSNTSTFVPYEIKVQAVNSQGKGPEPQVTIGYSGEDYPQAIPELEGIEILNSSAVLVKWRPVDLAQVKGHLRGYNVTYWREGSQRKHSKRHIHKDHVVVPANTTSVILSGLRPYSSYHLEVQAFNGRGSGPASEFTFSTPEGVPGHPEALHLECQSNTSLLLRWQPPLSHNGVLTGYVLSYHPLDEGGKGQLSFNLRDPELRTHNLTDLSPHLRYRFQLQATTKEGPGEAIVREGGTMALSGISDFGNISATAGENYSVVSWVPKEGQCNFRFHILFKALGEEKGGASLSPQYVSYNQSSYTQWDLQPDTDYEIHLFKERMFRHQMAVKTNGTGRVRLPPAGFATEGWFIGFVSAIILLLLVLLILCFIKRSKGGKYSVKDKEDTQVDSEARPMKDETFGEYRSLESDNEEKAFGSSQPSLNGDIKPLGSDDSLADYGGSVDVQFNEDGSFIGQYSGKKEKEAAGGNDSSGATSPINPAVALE
UniProt P08238: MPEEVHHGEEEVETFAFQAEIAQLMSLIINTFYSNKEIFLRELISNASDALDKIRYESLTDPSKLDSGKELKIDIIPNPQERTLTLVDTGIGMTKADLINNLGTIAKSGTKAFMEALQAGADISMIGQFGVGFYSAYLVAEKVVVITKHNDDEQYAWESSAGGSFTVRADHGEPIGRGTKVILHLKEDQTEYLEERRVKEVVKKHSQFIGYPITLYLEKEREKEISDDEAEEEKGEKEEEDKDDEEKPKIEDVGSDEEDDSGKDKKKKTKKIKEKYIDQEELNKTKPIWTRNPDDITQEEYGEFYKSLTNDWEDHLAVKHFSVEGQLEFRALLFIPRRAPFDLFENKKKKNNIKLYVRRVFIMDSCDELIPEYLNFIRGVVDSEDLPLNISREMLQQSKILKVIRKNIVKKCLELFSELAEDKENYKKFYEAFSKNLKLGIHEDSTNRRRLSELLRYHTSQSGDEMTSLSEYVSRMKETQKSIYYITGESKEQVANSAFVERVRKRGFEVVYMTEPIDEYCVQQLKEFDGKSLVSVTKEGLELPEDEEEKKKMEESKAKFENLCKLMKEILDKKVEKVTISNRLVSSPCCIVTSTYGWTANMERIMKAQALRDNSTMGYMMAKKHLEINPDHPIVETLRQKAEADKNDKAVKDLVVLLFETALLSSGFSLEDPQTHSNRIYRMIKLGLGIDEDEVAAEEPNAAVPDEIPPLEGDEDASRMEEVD
UniProt P04406: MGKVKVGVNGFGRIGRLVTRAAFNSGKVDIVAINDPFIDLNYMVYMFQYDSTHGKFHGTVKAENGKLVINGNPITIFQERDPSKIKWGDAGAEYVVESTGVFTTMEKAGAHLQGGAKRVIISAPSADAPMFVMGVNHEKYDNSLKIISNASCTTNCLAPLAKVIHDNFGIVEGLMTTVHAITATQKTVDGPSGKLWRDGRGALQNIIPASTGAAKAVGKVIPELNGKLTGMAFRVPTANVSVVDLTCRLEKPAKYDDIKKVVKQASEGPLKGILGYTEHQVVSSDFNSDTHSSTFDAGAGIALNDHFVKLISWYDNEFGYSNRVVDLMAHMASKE
UniProt P08670: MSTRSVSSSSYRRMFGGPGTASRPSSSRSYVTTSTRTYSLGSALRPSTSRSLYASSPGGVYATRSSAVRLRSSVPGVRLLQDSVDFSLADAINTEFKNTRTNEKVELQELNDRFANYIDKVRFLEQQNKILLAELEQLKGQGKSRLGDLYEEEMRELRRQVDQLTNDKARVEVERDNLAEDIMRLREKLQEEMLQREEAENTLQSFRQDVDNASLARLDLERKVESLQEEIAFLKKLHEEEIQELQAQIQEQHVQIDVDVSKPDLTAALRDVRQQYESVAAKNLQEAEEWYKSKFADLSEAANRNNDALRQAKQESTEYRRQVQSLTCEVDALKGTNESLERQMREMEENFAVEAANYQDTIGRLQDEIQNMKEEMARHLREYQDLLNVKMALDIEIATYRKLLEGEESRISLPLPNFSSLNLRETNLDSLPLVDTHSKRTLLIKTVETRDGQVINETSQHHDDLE

No constants are given. Whether binding was seen depends on the method and setting. Binding seen in cells or lysates may run through a third protein. Some entries that bind do so weakly or less than the wild type.

Assay [1] has as its target L1CAM (human (endogenous in SW1353)) (UniProt P32004). Kind of assay: co-IP; same procedure (protein A sepharose, antibody-cross-linked beads, overnight) in SW1353 CS protein extracts; Western blotting. A general note: A western blot detects proteins with antibodies after separation by electrophoresis.
The target of assay [2] is heat shock protein 90 beta (Hsp90ab1) (human (endogenous in C28/I2)) (UniProt P08238). Kind of assay: co-IP; anti-Hsp90ab1 antibody cross-linked to protein A sepharose, incubated overnight with C28/I2 chondrocytes lysate, washed three times with PBS; normal IgG as negative control; Western blotting.

For “glyceraldehyde 3-phosphate dehydrogenase (GAPDH) (from UniProt P04406 1-335)”, the binding result in assay [1] was “binds”.
Consider vimentin (from UniProt P08670 1-466), for which the binding result in assay [2] was “binds”.
